# Results published in PubChem BioAssay AID493014 (National Center for Advancing Translational Sciences (NCATS), 2011).
# The campaign covered roughly 340,000 compounds. About 170 (0.05%) were called active. Inconclusive means that the source gave no clear call. Such entries were picked first, then a sample of the others. The call rests on the fitted dose curve; in most records, active means well fitted inhibition curve with a large enough effect in the signal ratio, with a control signal flat (not every such curve was filed as active); inconclusive means small, poorly fitted or top-dose-only effect, or effect the other way, or a change in a side signal; inactive means flat fitted curve, though single readings scatter; the % refers to the signal ratio. A potency beside an inconclusive call is a rough fit, not a confirmed value.
# Experiment: qHTS Assay to Find Inhibitors of Chronic Active B-Cell Receptor Signaling;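 on activity change, negative = inhibition: plate controls were basal doxycycline-induced cells for no effect and cells given 10 µM MG132 for full effect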
# Settings: ABC-DLBCL IkBa-CBG/CBR reporter, luminescence ratio (green luciferase fused to IkBa over red control in TMD8 lymphoma cells), 4 h; activity change, negative = inhibition: at 46.1 µM (top of the series)
# Procedure, shortened: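 Concentration-response series (up to 46 uM) were applied to TMD8 dual-reporter cells for 4 h at 37C with doxycycline. Green/red ratio, after filter-overlap correction, defined %Activity; red signal alone was normalised to basal cells and zero luminescence.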
# Potency means the concentration at half of the fitted maximal effect.
Structure (SMILES),"activity change, negative = inhibition",Potency
CCOC(=O)c1c(-c2ccc(OC)cc2)cn2ccccc12,inconclusive: -10.6%,–
Cc1ccc(CN(C)C(=O)c2cccc(S(=O)(=O)N3CCc4ccccc43)c2)cc1,inconclusive: -7.31%,–
NNC(=O)c1cccc(Cn2cc(Br)c([N+](=O)[O-])n2)c1,–,"inconclusive: 6.31 µM [falling, partial curve, poor fit]"
CCCCOC(=O)C1Cc2ccccc2C(=O)O1 (stereo not given),inconclusive: 11%,–
COc1c(S(=O)(=O)N2CCCC2)ccc(Cl)c1Cl,inconclusive: -16.1%,–
Cc1cccc(OCC(=O)Nc2ccccc2F)c1,–,"inconclusive: 35.5 µM [rising, partial curve]"
CC1(C)CC(C(N)=S)CCO1 (stereo not given),inactive: -5.2%,–
CN(C(=O)c1ccc(-c2nn(C)c(=O)c3ccccc23)cc1)c1ccccc1,inactive: 2.01%,–
O=C(O)C1CC=CCC1C(=O)Nc1ccc2c(c1)OCCO2 (stereo not given),–,"inconclusive: 8.2 µM [activator, partial curve]"
CNc1oc(Cc2ccccc2)nc1S(=O)(=O)c1ccccc1,inactive: 0.621%,–
CCCc1cc(=O)oc2c3c(c4c(c12)OC(C)(C)C=C4)OC(C)C(C)C3O (stereo not given),inconclusive: 29.6%,–
CCOc1ccc(NC(=O)N2CCC(c3nc4ccccc4[nH]3)CC2)cc1,inconclusive: 8.67%,–
CCOc1ccc(S(=O)(=O)NCCC(=O)OCC(=O)Nc2cc(C)on2)cc1,inconclusive: -3.86%,–
CC(=O)N1c2ccc(F)c(F)c2C[C@H]1C,inconclusive: -7.89%,–
Cc1ccc(-c2cn3cc([N+](=O)[O-])ccc3n2)cc1,inconclusive: -10%,–
COc1ccc(S(=O)(=O)c2c(N)n(Cc3ccco3)c3nc4ccccc4nc23)cc1,inconclusive: 1.3%,–
CCN(CC)CCNc1ncnc2c1sc1nc(N3CCOCC3)c3c(c12)CC(C)(C)SC3,inconclusive: -5.13%,–
COc1ccc2[nH]c3ccccc3c2c1,inconclusive: -0.883%,–
CCOc1ccc(-n2c(=O)c3sccc3n(CC(=O)NCCc3ccc(OC)c(OC)c3)c2=O)cc1,–,"inconclusive: 35.5 µM [falling, single point]"
CCCCNC(=S)NC(=O)c1ccc(Cl)cc1Cl,inactive: 6.21%,–
COC(=O)Cc1ccc(NC(=O)c2ccc3c(c2)C(=O)N(Cc2cccnc2)C3=O)cc1,inactive: -4.51%,–
Cc1oc2c(c1C(=O)NCc1ccccc1)CCCC2,inactive: -22.1%,–
COc1ccc(NS(=O)(=O)c2ccc(-c3cnc(C4CC4)o3)cc2)cc1OC,–,"inconclusive: 15.8 µM [falling, single point]"
CCCCNC(=O)c1cn(CC)c2cc(N3CCN(C)CC3)c(F)cc2c1=O,inconclusive: 2.48%,–
O=C(COc1ccc2c(-c3ccccc3)cc(=O)oc2c1)NCC(O)c1ccccc1 (stereo not given),inconclusive: -3.01%,–
CC1=CC(=O)O[C@@H]1[C@@]1(C)C[C@H]2OC(=O)C[C@H]3[C@@H](C)C(=O)C(O)=C1[C@@]23CO,–,"inconclusive: 1.16 µM [rising, full curve]"
Fc1cccc(Cl)c1CSc1nnc(CNc2ccccc2)o1,inconclusive: 21.6%,–

# 3 structures from above, ordered by heavy-atom count, falling:
Structure (SMILES),"activity change, negative = inhibition",Potency
CCOc1ccc(-n2c(=O)c3sccc3n(CC(=O)NCCc3ccc(OC)c(OC)c3)c2=O)cc1,–,"inconclusive: 35.5 µM [falling, single point]"
O=C(COc1ccc2c(-c3ccccc3)cc(=O)oc2c1)NCC(O)c1ccccc1 (stereo not given),inconclusive: -3.01%,–
CCOc1ccc(S(=O)(=O)NCCC(=O)OCC(=O)Nc2cc(C)on2)cc1,inconclusive: -3.86%,–

# Further results

Structure (SMILES),"activity change, negative = inhibition",Potency
Cc1ccc(CSCC(=O)N(C)CC(=O)Nc2c(Cl)cccc2Cl)cc1,inactive: -7.4%,–
COc1cccc(NC(=S)NC(=O)c2cccnc2)c1,inactive: -5%,–
O=c1cc(-c2ccc(O)cc2)oc2c(O)c(O)c(O)c(O)c12,inactive: 4.67%,–
O=C(COc1ccc(Cl)cc1Cl)NC(=S)N1CCCc2ccccc21,inconclusive: 12.8%,–
Cc1[nH]nc2c1C1(CCN(Cc3ccccc3)CC1)C(C#N)=C(N)O2,inconclusive: 11%,–
O=C(NN1C(=O)C2C(C1=O)C1C=CC2C12CC2)c1ccccc1 (stereo not given),inconclusive: 12.9%,–
CCOC(=O)c1ccc(NC(=O)c2c(NC(=O)CCC(=O)O)sc3c2CCCCC3)cc1,inconclusive: -8.61%,–
O=C(Nc1ccccn1)c1cc(-c2ccc(Cl)s2)nc2ccccc12,inactive: 6.74%,–
Cc1ccc(C)c(-c2csc(N)c2C(=O)OC(C)C)c1,–,"inconclusive: 2.06 µM [rising, full curve, poor fit]"
Cc1ccc(-c2nn(C)c(=O)c3ccccc23)cc1S(=O)(=O)NCCO,–,"inconclusive: 25.9 µM [falling, single point]"
Cc1ccc(NC(=O)c2c(C)oc3ncn(C)c(=O)c23)cc1F,inconclusive: 3.91%,–
O=C(CC1SC(=O)N(c2ccccc2)C1=O)Nc1ccc(Br)cc1 (stereo not given),–,"inconclusive: 22.4 µM [falling, single point]"
Cc1nnc(-c2cnn(C)c2N)n1Cc1ccccc1F,inconclusive: 15.9%,–
CC[C@]12c3[nH]c4cc(CCC(=O)N(C)C)ccc4c3CCN1C(=O)[C@@H](CC(=O)NCCCN(C)C)C[C@@H]2C(=O)N1CCN(C(=O)c2ccco2)CC1,inconclusive: -15.8%,–
COC(=O)c1cc(S(=O)(=O)Nc2nn(C)c3cccc(F)c23)oc1C,inconclusive: -1.78%,–
Cc1ccc(NC2=C(N3CCOCC3)C(=O)c3ccccc3C2=O)cc1,–,"inconclusive: 29.1 µM [falling, single point]"
O=C(NC1(C(F)(F)F)C(=O)Nc2c1c(=O)[nH]c(=O)n2CCc1ccccc1)c1ccc(Cl)cc1 (stereo not given),inactive: 19.3%,–
COc1ccccc1NC(=O)N1CCCC1C(=O)Nc1ccc(NC(C)=O)cc1 (stereo not given),inconclusive: 3.18%,–
COC(=O)c1ccc(COC(=O)c2[nH]c(C)c(C(C)=O)c2C)o1,–,"inconclusive: 17.8 µM [falling, partial curve, poor fit]"
CC(Nc1ccccc1)C(=O)Nc1ccc(F)cc1 (stereo not given),inconclusive: -2.37%,–
CC(=O)Nc1cccc(NC(=O)c2cc3ccccc3o2)c1,–,"inconclusive: 22.4 µM [falling, partial curve]"
Nc1nc(-c2ccccc2)cn1N,–,"inconclusive: 25.1 µM [falling, single point]"
Cc1cccc(/C(N)=N/OC(=O)c2cccs2)c1,inconclusive: -4.04%,–
Cc1ccc(S(=O)(=O)NCc2ccncc2)c(C)c1C,inconclusive: -21.6%,–
CSCCOC(=O)COc1ccc(/C=N/NC(=O)c2nn(C)cc2Cl)cc1,–,"inconclusive: 18.4 µM [falling, single point]"
CCc1cccc(C)c1NC(=S)N(CCOC)C(C)c1ccco1 (stereo not given),inconclusive: 0.285%,–
O=C1NC2(CCCCCC2)C(=O)N1Cc1ccccc1,inconclusive: 8.37%,–

# Complete entries, looked up by structure. Order of values: activity change, negative = inhibition | Potency
# `Cc1ccc(-c2nn(C)c(=O)c3ccccc23)cc1S(=O)(=O)NCCO` as listed: – | inconclusive: 25.9 µM [falling, single point]
# `O=C(NN1C(=O)C2C(C1=O)C1C=CC2C12CC2)c1ccccc1` (stereo not given) as listed: inconclusive: 12.9% | –

# (list continues)

Structure (SMILES),"activity change, negative = inhibition",Potency
CCCCCCC(=O)NN1CCN(C)CC1,inconclusive: 2.8%,–
COc1ccccc1NC(=O)CSC1=Nc2ccccc2C2=NC(CC(=O)NCCc3ccccc3)C(=O)N12 (stereo not given),inconclusive: -0.165%,–
CC(C)CC1NC(=O)N(CC(=O)N2c3ccccc3NC(=O)C2(C)C)C1=O (stereo not given),inactive: 5.9%,–
O=C(CCc1ccccc1)Nc1ccc(N2CCOCC2)cc1,inconclusive: 2.52%,–
Cc1cc(/C=C(\C#N)C(=O)NCc2cccs2)c(C)[nH]1,–,"inconclusive: 8.91 µM [falling, partial curve]"
O=S(=O)(c1ccccc1)N1CCC(O)(CSc2ccc(F)cc2)CC1,inactive: 2.17%,–
Cc1ccc(C(=O)NCC(=O)NCc2ccc(Cl)cc2)s1,inactive: 1.57%,–
COc1ccc2nc(NC(=O)CN3C(=O)NC4(CCCCC4)C3=O)sc2c1,inconclusive: -0.562%,–
c1ccc(Cn2nnc(CNc3ccccc3)c2-c2c(CNc3ccccc3)nnn2Cc2ccccc2)cc1,inconclusive: 6.57%,–
CC(=O)c1c(C)[nH]c(C(=O)OCC(=O)N2CC(=O)Nc3ccccc32)c1C,inconclusive: -0.424%,–
COc1cc(NC(=O)c2cc3sccc3n2C)cc(OC)c1,–,"inconclusive: 1.46 µM [falling, partial curve, poor fit]"
Cn1cccc1C(=O)OCC(=O)NCc1ccc2c(c1)OCO2,inconclusive: -2.71%,–
CC(C)[C@H](NC(=O)c1ccccc1)C(=O)OCC(=O)c1ccc2c(c1)NC(=O)CO2,–,"inconclusive: 0.164 µM [rising, full curve, poor fit]"
O=C(O)c1ccc(CN2C(=O)c3cccc4c([N+](=O)[O-])ccc(c34)C2=O)cc1,–,"inconclusive: 15.8 µM [falling, partial curve]"
CC(=O)c1ccc(OC(C)C)c(CSC(=N)N)c1,inactive: -16.2%,–
CC1=Nc2cc(C(=O)NC3CCCCC3)ccc2Sc2ccc(Cl)cc21,–,"inconclusive: 0.447 µM [falling, full curve, poor fit]"
Cc1cc(C)c(NC(=O)c2ccccc2N(C)S(C)(=O)=O)c(C)c1,inconclusive: 4.09%,–
Nc1c(C(=O)Nc2ccc(F)cc2)nnn1-c1cccc(C(F)(F)F)c1,–,"inconclusive: 3.55 µM [falling, single point]"
CCCCCCCn1c2c(c(=N)c3c1CCC3)CCCC2,inconclusive: -29.6%,–
CCn1nc(C)c(CN2CCCC(CNS(=O)(=O)c3ccc(OC)cc3)C2)c1C (stereo not given),inactive: 7.76%,–
COc1ccccc1C(=O)n1nc(-c2cccnc2)nc1NCc1ccccc1,inconclusive: -19.5%,–
C[C@@H](C(=O)NC1CCCCC1)N1C(=O)N2CCc3c([nH]c4ccccc34)[C@@]2(C)C1=O,inconclusive: 0.644%,–
COc1ccc(-c2csc3ncn(CC(=O)N4CCOCC4)c(=O)c23)cc1,inconclusive: 0.706%,–
CCOC(=O)c1cc(-c2ccccc2)sc1NC(=O)c1ccc(OC)cc1,inactive: -5.12%,–
CC(=O)c1c(C)[nH]c(C(=O)OCC(=O)Nc2ccccc2Cl)c1C,–,"inconclusive: 10 µM [falling, partial curve, poor fit]"
O=C(O)c1ccc(/C=C(\c2nc3ccccc3[nH]2)c2nc3ccccc3s2)cc1,–,"inconclusive: 25.1 µM [falling, single point]"
